PubChem BioAssay AID2551 (National Center for Advancing Translational Sciences (NCATS), 2010)
Among all 310,000 compounds or so, about 17,000 (5.5%) were called active. The shares of active, inactive and inconclusive entries below differ from those in the screen. The call rests on the fitted dose curve; in most records, active means well fitted inhibition curve with a large enough effect; inconclusive means small, poorly fitted or top-dose-only effect, or effect the other way; inactive means no such curve, though single readings can be large or run the other way. A potency beside an inconclusive call is a rough fit, not a confirmed value.
Further: nearly all actives have a fitted effect of over 60% in size.
Potency means the concentration at half of the fitted maximal effect.

Sequences of proteins named here, by UniProt entry; tags and fusion partners are left off. A change or cut given only in a name is not applied to a line headed by its entry.
UniProt P51450: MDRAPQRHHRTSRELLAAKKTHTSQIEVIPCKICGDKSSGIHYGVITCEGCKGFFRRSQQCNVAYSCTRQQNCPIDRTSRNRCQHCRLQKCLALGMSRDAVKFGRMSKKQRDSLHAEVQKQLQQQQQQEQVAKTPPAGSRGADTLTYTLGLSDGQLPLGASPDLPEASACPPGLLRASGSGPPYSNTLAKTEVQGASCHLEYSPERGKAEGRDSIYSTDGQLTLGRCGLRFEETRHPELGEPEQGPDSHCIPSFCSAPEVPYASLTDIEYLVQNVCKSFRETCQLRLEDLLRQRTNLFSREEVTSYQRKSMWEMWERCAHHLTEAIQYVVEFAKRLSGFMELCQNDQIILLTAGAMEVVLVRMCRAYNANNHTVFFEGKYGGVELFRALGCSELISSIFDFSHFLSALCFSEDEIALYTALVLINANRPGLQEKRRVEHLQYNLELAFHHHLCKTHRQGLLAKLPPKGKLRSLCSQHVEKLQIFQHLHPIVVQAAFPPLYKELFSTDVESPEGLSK

The compounds below were run against Nuclear receptor ROR-gamma (Mus musculus) (UniProt P51450) (assay: qHTS for inhibitors of ROR gamma transcriptional activity). Conditions: Drosophila S2 Gal4-RORgamma UAS-luciferase reporter, 20 h; series mostly up to 53.6 µM.
Outline: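 Using a luciferase readout, inhibitors were identified by reduced reporter activity in Drosophila cells coexpressing a copper-inducible Gal4–ROR gamma fusion and UAS-driven Photinus luciferase, incubated 20 hr after 700 uM copper sulfate.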
`COc1ccccc1C(=O)NNC(=O)C(=O)NC(C)(C)C` was tested, and the Potency was inconclusive: 20 µM [inhibitor, single point]. `Cc1ccc(C)c(S(=O)(=O)/N=C2\C=C(NS(=O)(=O)c3ccccc3)C(=O)c3ccccc32)c1` was tested, and the Potency was “inactive”. For `COc1ccc(N2CCN(C(=O)CSc3nc4ccccc4c(=O)[nH]3)CC2)cc1`, the Potency was inconclusive: 6.31 µM [activator, partial curve]. With `Cc1cc(C)cc(-n2nnc(C(=O)NCc3ccc(Cl)cc3)c2N)c1` the Potency was inconclusive: 31.6 µM [activator, single point]. With `CCOC(=O)C1(Cc2cccc(OC)c2)CCCN(Cc2nccn2CC)C1` (stereo unspecified) the Potency was active: 3.55 µM. With `CC(C)c1ccc(NC(=O)CCc2ccccc2)cc1` the Potency was inconclusive: 7.08 µM [activator, partial curve]. With `CCCOc1cccc(C(=O)Nc2nnn(CCC)n2)c1` the Potency was inconclusive: 12.6 µM [activator, single point]. With `Cc1ccc2nc3cc([N+](=O)[O-])cc([N+](=O)[O-])c3cc2c1` the Potency was inconclusive: 6.31 µM [inhibitor, full curve, poor fit]. For `NC(=O)c1ccc(NC(=O)Cc2cccs2)cc1`, the Potency was inconclusive: 0.0316 µM [inhibitor, full curve, poor fit]. For `O=C(Cc1ccccc1)NCC(=O)N/N=C/c1ccc(C(=O)O)cc1`, the Potency was “inactive”. With `CN1C(=O)c2ccccc2Sc2ccc(NC(=O)N3CCOCC3)cc21` the Potency was inconclusive: 35.5 µM [activator, single point]. `O=c1c(Cl)c(O)c2cccc3c4ccccc4n1c23` was tested, and the Potency was “inactive”. For `CC(=O)Nc1ccc(Nc2nnc(-c3ccc(O)cc3)c3ccccc23)cc1`, the Potency was “inactive”. `Cc1ccc(OCCCC(=O)Nc2ccc(Br)cc2)cc1` was tested, and the Potency was inconclusive: 11.2 µM [activator, single point]. With `Cc1cccc(-n2cnc3cc([N+](=O)[O-])ccc32)c1` the Potency was “inactive”. For `O=C(Nc1ccc(Cl)c(Cl)c1)OCc1cncs1`, the Potency was inconclusive: 11.2 µM [activator, partial curve]. With `CCn1c(-c2cc(-c3ccc(C)cc3)nc3ccccc23)n[nH]c1=S` the Potency was active: 1.12 µM. For `Cc1ccc(/C=N/NC(=S)NCCc2ccccc2)s1`, the Potency was active: 0.224 µM. In the case of `O=C(N/N=C/c1ccco1)c1cc(-c2ccc(Br)s2)[nH]n1`, the Potency is reported as inconclusive: 15.8 µM [inhibitor, single point]. For `COc1cccc(-c2ccc3ncnc(NCc4ccccc4OC)c3c2)c1`, the Potency was inconclusive: 35.5 µM [inhibitor, single point]. `N#C/C=C(/N)N1CCN(c2ccc(Cl)c(Cl)c2)CC1` was tested, and the Potency was inconclusive: 20 µM [activator, single point].
